{"source": "PubChem BioAssay AID651640", "about": "(Broad Institute, 2012)", "note": "In all, about 350,000 compounds went through this assay and about 6,000 (1.7%) were called active. This list was built around the results that the source calls inconclusive (neither active nor inactive); the mix of calls is not that of the screen. Rule as the data show it: active = CPE inhibition above about 20% (passing the limit was not always enough); inconclusive = no clear call, values can overlap the other calls; tested in BHK-21 cells.", "data": [{"experiment": "protection of cells from dengue 2 killing – plate reader, single concentration, primary screen (AID 651640);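 also: 0% = median of neutral control wells and 100% = median of positive control wells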", "conditions": "DENV2-infected cells, cytopathic effect rescue, at 9.99 µM, stronger effect = higher value", "values": [{"smiles": "O=C(O)CCCCCN1C(=O)/C(=C\\c2cn(-c3ccccc3)nc2-c2cccs2)SC1=S", "CPE inhibition": "active: 59.6%"}, {"smiles": "C[C@H](CO)N1C[C@H](C)[C@@H](CN(C)C(=O)CC2CC2)Oc2cc(C#CCN(C)C)ccc2S1(=O)=O", "CPE inhibition": "inconclusive: 21.3%"}, {"smiles": "Cc1csc(SC(C)C(=O)NC2CCCCC2C)n1", "note": "(centres undefined)", "CPE inhibition": "inactive: 1.78%"}, {"smiles": "CC1(C)O[C@@H]2C[C@H]3[C@@H]4CCC5=CC(=O)C=C[C@]5(C)[C@@]4(F)[C@@H](O)C[C@]3(C)[C@]2(C(=O)CO)O1", "CPE inhibition": "inconclusive: 24.8%"}, {"smiles": "Cc1ccc(C(=O)Nc2ncccc2C)cc1S(=O)(=O)N1CCCCC1", "CPE inhibition": "inconclusive: 22.1%"}, {"smiles": "Cc1ccc(C)c(-n2sc3ccc(F)cc3c2=O)c1", "CPE inhibition": "inconclusive: 57.9%"}, {"smiles": "Cc1noc(C)c1NC(=O)Nc1ccc2c(c1)C(=O)N(C)[C@H]1CC[C@H](CC(=O)Nc3ccccc3F)O[C@@H]1CO2", "CPE inhibition": "inconclusive: 22.5%"}, {"smiles": "O=C(O)[C@H](Cc1ccccc1)N1Cc2ccccc2C1=O", "CPE inhibition": "inconclusive: 23%"}, {"smiles": "C[C@@H](NC(=O)[C@@H]1N[C@@H]2c3ccc(-c4cncnc4)c(=O)n3C[C@@H]2[C@H]1CO)c1ccccc1", "CPE inhibition": "inactive: 9.74%"}, {"smiles": "CO[C@@H]1CN(C)C(=O)c2cc(NS(=O)(=O)c3ccc(Cl)cc3)ccc2OC[C@@H](C)N(C)C[C@@H]1C", "CPE inhibition": "inactive: -0.587%"}, {"smiles": "CCCCn1c(N)c(N(CC)C(=O)c2ccc(N(C)S(=O)(=O)c3ccc(C)cc3)cc2)c(=O)[nH]c1=O", "CPE inhibition": "inconclusive: 22.8%"}, {"smiles": "CN(CC(=O)Nc1ccccc1C(F)(F)F)C(=O)COc1ccccc1Cc1ccccc1", "CPE inhibition": "inconclusive: 63.3%"}, {"smiles": "OCCOCCn1c(-c2ccccc2)nc(=S)c2c1CCCC2", "CPE inhibition": "inconclusive: 20.9%"}, {"smiles": "O=[N+]([O-])c1ccc(O)c2cccnc12", "CPE inhibition": "inconclusive: 23%"}, {"smiles": "COC(=O)[C@]12CCCCC=C1N(CCC1=CCCCC1)C(=O)[C@H](CC(=O)NCc1cccs1)C2", "CPE inhibition": "inconclusive: 42.5%"}, {"smiles": "COc1ccc(C#Cc2cnc3c(c2)C(=O)N([C@@H](C)CO)C[C@@H](C)[C@@H](CN(C)CC2CCOCC2)O3)cc1", "CPE inhibition": "inconclusive: 42.1%"}, {"smiles": "CO[C@@H]1CN(C)C(=O)c2ccc(NS(=O)(=O)c3cn(C)cn3)cc2OC[C@@H](C)N(Cc2cccc(C(F)(F)F)c2)C[C@H]1C", "CPE inhibition": "inactive: 5.69%"}, {"smiles": "CCOC(=O)N1CCN(C2CCCN(C(=O)c3cccc(N(C)C)c3)C2)CC1", "note": "(centres undefined)", "CPE inhibition": "inconclusive: 34.3%"}, {"smiles": "C[C@@H]1CN([C@@H](C)CO)C(=O)c2cc(NC(=O)Nc3cccc4ccccc34)ccc2O[C@@H](C)CCCCO[C@H]1CN(C)Cc1ccncc1", "CPE inhibition": "inconclusive: 23.8%"}]}]}
